From the supplement of paper PMC4683952
The other results are listed elsewhere or left out. Rule as the data show it: active = 2 or more and inactive = the rest. This data set is noisy: repeats of one test often differ as much as different tests do.

These molecules were tested on Lgr5 (MarsCy1-Lgr5-EGFP, U2OS) (assay: cell-surface Lgr5 expression (SCi1 fluorescence, background-subtracted) relative to WT DMSO (fold of DMSO control); higher = more Lgr5 at the plasma membrane). Details: U2OS MarsCy1-Lgr5-EGFP stable; treatment time: overnight; library: ActiProbe-5K (TimTec); 25 µM.

cell-surface Lgr5 expression, inactive:
N=c1oc2c(Br)cc(Br)cc2cc1-c1nc2ccccc2[nH]1 0.896, O=C1N=C(N2CCOCC2)S/C1=C\C1=Cc2ccccc2OC1 1.23, Sc1nc2ccccc2n1-c1ccccc1 1.4, Sc1nnc(-c2ccc(Cl)cc2Cl)o1 1.25, COC1CCC(OC)CC1 (stereo unspecified) 1.18, COc1cc([N+](=O)[O-])c(OC)cc1Br 1.53, O=C(OCCN(CC12CC3CC(CC(C3)C1)C2)C(=O)c1ccco1)c1ccco1 1.21, O=c1[nH]cnc2c1ncn2C1O[C@@H](CO)[C@H](O)[C@@H]1O (stereo partly specified) 1.31, Cc1n[nH]c(N)c1Br 1.18, O=C(CCCCCCC(=O)N/N=C/c1cc(Br)cs1)N/N=C\c1cc(Br)cs1 1.15, C1CCN(c2nc3nonc3nc2N2CCCC2)C1 1.21, NNC(=S)Nc1ccccc1 0.943, O=c1cn[nH]c(=S)n1/N=C/c1cc(Br)c(O)c(Br)c1 1.23, CCCCSCC(O)CN1C(=O)NC(C)(C)C1=O (stereo unspecified) 1.13, CC(C(=O)NN)n1cnc2sc3c(c2c1=O)CCCC3 (stereo unspecified) 1.11, CC1=NN(C(=S)c2ccc(C)cc2)C(C)(O)C1CC(C)C (stereo unspecified) 0.987, CN(C)CCCN1C(=O)C(O)=C(C(=O)c2ccco2)C1c1ccco1 (stereo unspecified) 1.17, OCc1cc(C(F)(F)F)cc(C(F)(F)F)c1 1.13, Cc1ccc2c(c1)C1OCCC1C(c1ccncc1)N2 (stereo unspecified) 1.39, Cc1cc2c(c(=O)[nH]1)C(=O)O/C2=C/c1ccc(C)o1 1.29, CC1=C(C(=O)OC(C)C)C(c2cccs2)C2=C(CC(C)(C)CC2=O)N1 (stereo unspecified) 1.2, N#Cc1sc2nc3c(cc2c1N)CCCCCC3 1.55, CCCCCC(C)(C)NC(=S)N(C1CCCCC1)C1CCCCC1 1.2, CC(=O)c1c(C)nc(C)nc1NC(=O)C(C)C 0.995, N#CC12CC1(C#N)C1(N=C2N)OCCS1 (stereo unspecified) 1.13, Cc1nc(C)c(C#N)c(N)c1Br 1.08, CC(C)N1CCc2c(sc(N)c2C#N)C1 0.985, Cc1nc2cc(S(=O)(=O)C(F)(F)F)ccc2s1 1.26, S=c1oc2ccccc2n1Cn1c(=S)oc2ccccc21 1.1, C1CCN(c2nc(N3CCCCC3)nc(N3CCNCC3)n2)CC1 0.979, O=C(c1ccccc1)n1c(=S)nc2ncccn21 1.04, NC(c1ccccc1)c1cc2ccccc2o1 (stereo unspecified) 1.26, C#CCOc1ccc(/C=N\n2cnnc2N/N=C/c2ccc(OCC#C)c(OC)c2)cc1OC 1.04, Cc1cn(CC(C)C)c(=O)[nH]c1=O 1.5, Cc1nonc1-c1noc(CCC(=O)O)n1 1.01, N#Cc1c(SCCN2CCOCC2)sc2c(=O)[nH]c(=O)[nH]c12 1.31, Cc1ccc(/C=N\N=C/c2ccc(C)s2)s1 0.991, O=[N+]([O-])c1ccc(-n2ccnc2)c(F)c1 1.08, Cc1ccc(C2=C(C#N)C(N)=C(C#N)C3=CCCC32)c(C)c1 (stereo unspecified) 1.38, CC(=O)OC(C)(C#CCN1CCCC1)C(C)(C)C (stereo unspecified) 1.29, C(=Nc1c2ccccc2nc2ccccc12)c1ccco1 1.07, CN(C)CCCN1C(=O)C(O)=C(C(=O)c2cccs2)C1c1cccs1 (stereo unspecified) 1.21, c1ccc(C2=Nc3ccccc3C(c3ccccc3)(c3ccccc3)N2)cc1 0.867, O=C(O)CN1C(=O)/C(=C\c2ccco2)SC1=S 1.43, C(=N/c1c2ccccc2nc2ccccc12)/c1cccc2c1OCOC2 1.65, CCCCc1ccc(C2C3=C(CC(C)(C)CC3=O)OC3=C2C(=O)CC(C)(C)C3)s1 1.41, O=C(Nc1nccs1)C1CCCCC1 0.996, O=C(NNC(=O)c1ccco1)c1ccco1 0.981, Oc1ccc2ccccc2c1/C=N\N1CCN(C2c3ccccc3-c3ccccc32)CC1 1.01, O=c1[nH]n(CC2COC3(CCCCC3)O2)c(=O)c2ccccc12 (stereo unspecified) 1.54, Nc1ccc2nn(-c3ccc(F)cc3)nc2c1 0.802, C=CCNC(=S)NNC(=O)C12CC3CC(CC(C3)C1)C2 1.1, c1(/c2c(n[nH]n2)c(/c2c1n[nH]n2)=N\NC(=S)N)=N/NC(=S)N 0.806, c1ccc(-c2csc(N3CCC(c4ccccc4)C3)n2)cc1 (stereo unspecified) 0.985, Cn1cccc1/C=N/NC(=O)c1cc(C(C)(C)C)n[nH]1 1.27, CC1(C)CC2(C)OC(=O)N(N)C2(C)c2ccccc21 (stereo unspecified) 1.07, C=CCC1NCCc2c(Br)cccc21.Cl (stereo unspecified) 1.43, S=C1COC(c2ccc(Br)cc2)N1c1ccc(Br)cc1 (stereo unspecified) 1.01, c1cnc2c(c1)NC1(CCCCC1)N2 1.71, CC1(C)C2CCC1(CS(=O)(=O)NCC13CC4CC(CC(C4)C1)C3)C(=O)C2 (stereo unspecified) 1.22, CC1(C)CC(=O)c2sc(N)nc2C1 1.13, S=c1n(CN2CCC(c3ccccc3)C2)nc(Cc2ccccc2)n1-c1ccccc1 (stereo unspecified) 1.14, O=C1NC(=S)N/C1=C/c1cc(Br)c(Sc2ccc(Cl)cc2)o1 1.47, Fc1ccc2[nH]c3nc4ccccc4nc3c2c1 1.44, Nc1ncnc2sc3c(c12)CCCC3 1.08, COc1ccc2c(c1)S(=O)(=O)C(C)=C2N 1.41, [N+](c1cc(N\N=C(\C#N)C#N)ccc1Cl)([O-])=O 1.01, Oc1ccc2cc(O)ccc2c1 1.01, c1csc(Cc2nc(-c3cccs3)no2)c1 0.726, O=[N+]([O-])c1ccc(-n2cc(-c3ccccc3)nc/c2=N\N(Cc2ccccc2)c2ccccc2)cc1 1.5, O=C(O)C(C(=O)O)C1C=CCC1 (stereo unspecified) 1.18, FC(F)(F)c1ccc(/C=N/n2c(S)nnc2-c2cccnc2)cc1 1.4, CCSc1sc(CC)c(C(=O)O)c1C=O 1.22, Cc1cc(S(=O)c2cc(C)cc(C(C)(C)C)c2O)c(O)c(C(C)(C)C)c1 0.825, CS(=O)(=O)N/N=C/c1cc(Cl)cc(Br)c1O 1.5, O=CC1C(=O)Nc2ccccc21 (stereo unspecified) 1.28, CC(C)Cc1nc(C#N)c(N2CCOCC2)o1 1.08, Nc1nccc(-c2ccc(Cl)cc2Cl)n1 0.937, c1csc(CNCCNCc2cccs2)c1 0.696, CCSC1=NCN(CCCC(=O)O)CN1 1.11, Cc1n[nH]c(S(=O)CC(=O)O)c1[N+](=O)[O-] (stereo unspecified) 1.61, CCOC(=O)C1=C(C)NC2=C(C(=O)CC(C)(C)C2)C1c1cc(Br)c(C)s1 (stereo unspecified) 1.43, Oc1ccc(/C=N\Nc2nncn2/N=C\c2ccc(O)c(O)c2)cc1O 1.28, C/C(=N\NC(N)=O)C1CCCCC1 1.39, C(=N/c1ccc(-c2ccc(/N=C/c3cccnc3)cc2)cc1)/c1cccnc1 1.15, CC(C)S(=O)(=O)c1cc2c(cc1[N+](=O)[O-])n(C)c(=O)c(=O)n2C 1.22, Brc1cncc(Br)c1 1.09, CCC1CCc2[nH]c(=S)c(C#N)c(C(F)(F)F)c2C1 (stereo unspecified) 1.23, Nc1nonc1/C(=N\O)N1CCN(c2ccc(Cl)cc2[N+](=O)[O-])CC1 1.4, Fc1ccccc1/C=N\N1CCN(C2c3ccccc3-c3ccccc32)CC1 1.02, COC(=O)c1cn2c(c1C(=O)OC)CCC2 0.971, c1ccc2c(c1)ccc1nnc(-c3c[nH]c4ccccc34)n12 1.39, Nc1ccc(F)c(F)c1F 1.15, On1nnc2cc(C(F)(F)F)ccc21 1.28, CCN(Cc1nonc1C)C(=O)C(C)n1cc([N+](=O)[O-])cn1 (stereo unspecified) 1.03, Cc1cc(O)nc(SCc2oc(=O)oc2C)n1 1.16, O=S(=O)(Nc1ccc2c(c1)oc1ccccc12)c1ccc2ccccc2c1 1.08, Nc1nonc1C(=O)N1CCCC1 1.14, O=C(O)c1nn2cc(CCO)cnc2c1Cl 1.45, Cc1sc(NC(=O)CSc2sc3c(=O)[nH]c(=O)[nH]c3c2C#N)c(C#N)c1C 1.32, Cc1ccc(-c2cn3cc(C)ccc3n2)cc1 0.937, O=C(C1=C(O)C(=O)N(CCN2CCOCC2)C1c1cccs1)c1cccs1 (stereo unspecified) 1.28, Cc1cc(C)c(CSc2ncnc3[nH]cnc23)c(C)c1 1.23, Cc1ccc(/C=C(/C#N)C(N)=S)o1 1.68, Cc1cc2c(c(=S)[nH]1)C(=O)O/C2=C/c1c(C)[nH]c(C#N)c1C 1.6, CC(C)(C)C1CCc2c(sc(NC(=O)C3CCCO3)c2C(N)=O)C1 (stereo unspecified) 1.63
